In article PMC3466224:
Results are given in words; binding and its absence hold for the method and conditions named. Binding seen in cells or lysates may run through a third protein. Some binding calls cover weakened binding; strength is not graded here. For some assays here: Sequences can lack the tags named with a protein.

Columns and labels:
[1] = target: T1, carbohydrate response element binding protein (Chrebp) (mouse (endogenous in primary hepatocytes and liver)) (UniProt Q99MZ3); experiment: co-IP; mouse primary hepatocytes transfected with HA-OGT, cultured with 5 mM or 25 mM glucose for 24 hr; lysed in RIPA buffer, diluted with Co-IP buffer (50 mM Tris, 150 mM NaCl, 0.1% NP-40, 10% glycerol, 5 mM MgCl2); immunoprecipitation with anti-Chrebp antibody, blot with anti-HA
T1 sequence: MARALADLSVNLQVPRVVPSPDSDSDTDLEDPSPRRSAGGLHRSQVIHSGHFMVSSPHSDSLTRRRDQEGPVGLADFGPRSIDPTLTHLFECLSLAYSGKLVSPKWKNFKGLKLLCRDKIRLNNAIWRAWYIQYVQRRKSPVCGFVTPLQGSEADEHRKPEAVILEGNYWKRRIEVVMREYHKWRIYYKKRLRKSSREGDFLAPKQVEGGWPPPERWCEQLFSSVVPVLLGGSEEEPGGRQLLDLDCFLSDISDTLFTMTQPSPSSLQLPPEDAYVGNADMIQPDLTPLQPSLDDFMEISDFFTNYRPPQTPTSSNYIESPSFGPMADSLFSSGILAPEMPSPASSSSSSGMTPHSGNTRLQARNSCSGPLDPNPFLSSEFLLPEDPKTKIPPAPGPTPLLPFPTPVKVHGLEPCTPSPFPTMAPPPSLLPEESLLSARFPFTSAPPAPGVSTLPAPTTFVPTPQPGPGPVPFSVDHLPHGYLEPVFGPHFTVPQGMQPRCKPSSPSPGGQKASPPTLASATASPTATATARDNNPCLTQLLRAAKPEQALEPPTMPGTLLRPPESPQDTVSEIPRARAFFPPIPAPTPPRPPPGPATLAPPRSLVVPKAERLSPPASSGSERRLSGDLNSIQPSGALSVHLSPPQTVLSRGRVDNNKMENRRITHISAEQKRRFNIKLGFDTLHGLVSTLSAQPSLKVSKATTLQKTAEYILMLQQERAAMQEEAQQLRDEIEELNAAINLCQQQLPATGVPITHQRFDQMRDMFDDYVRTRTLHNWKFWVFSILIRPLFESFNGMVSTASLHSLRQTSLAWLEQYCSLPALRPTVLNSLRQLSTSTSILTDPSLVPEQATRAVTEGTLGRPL

[2] = target: T1, carbohydrate response element binding protein (Chrebp) (mouse (endogenous in primary hepatocytes and liver)); experiment: co-IP; liver samples of L-FoxO1-KO and control mice, 24 hr fasted or 3 hr refed after 24 hr starvation; immunoprecipitation with anti-Chrebp antibody, blot with anti-OGT

Binder | binding [1] | binding [2]
HA-OGT (O-GlcNAc transferase) (enzyme, UniProt O15294 1-1046) MASSVGNVADSTEPTKRMLSFQGLAELAHREYQAGDFEAAERHCMQLWRQEPDNTGVLLLLSSIHFQCRRLDRSAHFSTLAIKQNPLLAEAYSNLGNVYKERGQLQEAIEHYRHALRLKPDFIDGYINLAAALVAAGDMEGAVQAYVSALQYNPDLYCVRSDLGNLLKALGRLEEAKACYLKAIETQPNFAVAWSNLGCVFNAQGEIWLAIHHFEKAVTLDPNFLDAYINLGNVLKEARIFDRAVAAYLRALSLSPNHAVVHGNLACVYYEQGLIDLAIDTYRRAIELQPHFPDAYCNLANALKEKGSVAEAEDCYNTALRLCPTHADSLNNLANIKREQGNIEEAVRLYRKALEVFPEFAAAHSNLASVLQQQGKLQEALMHYKEAIRISPTFADAYSNMGNTLKEMQDVQGALQCYTRAIQINPAFADAHSNLASIHKDSGNIPEAIASYRTALKLKPDFPDAYCNLAHCLQIVCDWTDYDERMKKLVSIVADQLEKNRLPSVHPHHSMLYPLSHGFRKAIAERHGNLCLDKINVLHKPPYEHPKDLKLSDGRLRVGYVSSDFGNHPTSHLMQSIPGMHNPDKFEVFCYALSPDDGTNFRVKVMAEANHFIDLSQIPCNGKAADRIHQDGIHILVNMNGYTKGARNELFALRPAPIQAMWLGYPGTSGALFMDYIITDQETSPAEVAEQYSEKLAYMPHTFFIGDHANMFPHLKKKAVIDFKSNGHIYDNRIVLNGIDLKAFLDSLPDVKIVKMKCPDGGDNADSSNTALNMPVIPMNTIAEAVIEMINRGQIQITINGFSISNGLATTQINNKAATGEEVPRTIIVTTRSQYGLPEDAIVYCNFNQLYKIDPSTLQMWANILKRVPNSVLWLLRFPAVGEPNIQQYAQNMGLPQNRIIFSPVAPKEEHVRRGQLADVCLDTPLCNGHTTGMDVLWAGTPMVTMPGETLASRVAASQLTCLGCLELIAKNRQEYEDIAVKLGTDLEYLKKVRGKVWKQRISSPLFNTKQYTMELERLYLQMWEHYAAGNKPDHMIKPVEVTESA | binds | –
O-GlcNAc transferase (OGT), endogenous (enzyme, UniProt Q8CGY8 1-1046) MASSVGNVADSTEPTKRMLSFQGLAELAHREYQAGDFEAAERHCMQLWRQEPDNTGVLLLLSSIHFQCRRLDRSAHFSTLAIKQNPLLAEAYSNLGNVYKERGQLQEAIEHYRHALRLKPDFIDGYINLAAALVAAGDMEGAVQAYVSALQYNPDLYCVRSDLGNLLKALGRLEEAKACYLKAIETQPNFAVAWSNLGCVFNAQGEIWLAIHHFEKAVTLDPNFLDAYINLGNVLKEARIFDRAVAAYLRALSLSPNHAVVHGNLACVYYEQGLIDLAIDTYRRAIELQPHFPDAYCNLANALKEKGSVAEAEDCYNTALRLCPTHADSLNNLANIKREQGNIEEAVRLYRKALEVFPEFAAAHSNLASVLQQQGKLQEALMHYKEAIRISPTFADAYSNMGNTLKEMQDVQGALQCYTRAIQINPAFADAHSNLASIHKDSGNIPEAIASYRTALKLKPDFPDAYCNLAHCLQIVCDWTDYDERMKKLVSIVAEQLEKNRLPSVHPHHSMLYPLSHGFRKAIAERHGNLCLDKINVLHKPPYEHPKDLKLSDGRLRVGYVSSDFGNHPTSHLMQSIPGMHNPDKFEVFCYALSPDDGTNFRVKVMAEANHFIDLSQIPCNGKAADRIHQDGIHILVNMNGYTKGARNELFALRPAPIQAMWLGYPGTSGALFMDYIITDQETSPAEVAEQYSEKLAYMPHTFFIGDHANMFPHLKKKAVIDFKSNGHIYDNRIVLNGIDLKAFLDSLPDVKIVKMKCPDGGDNPDSSNTALNMPVIPMNTIAEAVIEMINRGQIQITINGFSISNGLATTQINNKAATGEEVPRTIIVTTRSQYGLPEDAIVYCNFNQLYKIDPSTLQMWANILKRVPNSVLWLLRFPAVGEPNIQQYAQNMGLPQNRIIFSPVAPKEEHVRRGQLADVCLDTPLCNGHTTGMDVLWAGTPMVTMPGETLASRVAASQLTCLGCLELIAKSRQEYEDIAVKLGTDLEYLKKIRGKVWKQRISSPLFNTKQYTMELERLYLQMWEHYAAGNKPDHMIKPVEVTESA | – | binds
